Results published in paper PMC8597092.
Results are given in words; binding and its absence hold for the method and conditions named. Binding seen in cells or lysates may run through a third protein. These calls come from enrichment with a bait or labelling near it, and not all partners need be listed.

Protein sequences, listed by entry. Tags and fused reporters are not part of them.
UniProt Q05397: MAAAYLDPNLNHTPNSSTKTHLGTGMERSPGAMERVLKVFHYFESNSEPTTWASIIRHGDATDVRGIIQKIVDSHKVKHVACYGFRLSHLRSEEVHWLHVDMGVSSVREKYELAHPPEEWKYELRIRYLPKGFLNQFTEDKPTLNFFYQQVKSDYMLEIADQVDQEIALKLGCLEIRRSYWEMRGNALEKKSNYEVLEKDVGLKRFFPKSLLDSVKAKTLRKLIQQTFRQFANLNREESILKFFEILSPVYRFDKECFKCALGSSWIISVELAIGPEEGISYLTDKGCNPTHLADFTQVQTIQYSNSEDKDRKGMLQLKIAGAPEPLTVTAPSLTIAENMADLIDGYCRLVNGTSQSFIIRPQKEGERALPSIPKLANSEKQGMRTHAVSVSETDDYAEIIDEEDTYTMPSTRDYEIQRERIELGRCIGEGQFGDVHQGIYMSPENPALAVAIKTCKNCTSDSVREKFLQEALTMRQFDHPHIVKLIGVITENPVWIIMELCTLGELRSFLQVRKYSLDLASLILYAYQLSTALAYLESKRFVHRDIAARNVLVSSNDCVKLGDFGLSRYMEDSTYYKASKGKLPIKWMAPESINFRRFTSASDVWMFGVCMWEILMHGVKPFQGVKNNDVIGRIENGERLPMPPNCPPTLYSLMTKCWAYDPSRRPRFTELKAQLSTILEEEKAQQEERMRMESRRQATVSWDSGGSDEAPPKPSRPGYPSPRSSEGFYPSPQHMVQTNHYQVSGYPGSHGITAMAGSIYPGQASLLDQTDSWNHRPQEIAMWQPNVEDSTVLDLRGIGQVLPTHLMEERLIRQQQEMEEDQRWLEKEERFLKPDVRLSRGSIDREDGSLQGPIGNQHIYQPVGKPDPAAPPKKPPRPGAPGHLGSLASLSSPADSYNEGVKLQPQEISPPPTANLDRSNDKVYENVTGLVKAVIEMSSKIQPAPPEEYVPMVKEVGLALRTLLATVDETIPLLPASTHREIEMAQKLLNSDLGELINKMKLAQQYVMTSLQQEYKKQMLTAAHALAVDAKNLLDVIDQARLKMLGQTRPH
UniProt P35222: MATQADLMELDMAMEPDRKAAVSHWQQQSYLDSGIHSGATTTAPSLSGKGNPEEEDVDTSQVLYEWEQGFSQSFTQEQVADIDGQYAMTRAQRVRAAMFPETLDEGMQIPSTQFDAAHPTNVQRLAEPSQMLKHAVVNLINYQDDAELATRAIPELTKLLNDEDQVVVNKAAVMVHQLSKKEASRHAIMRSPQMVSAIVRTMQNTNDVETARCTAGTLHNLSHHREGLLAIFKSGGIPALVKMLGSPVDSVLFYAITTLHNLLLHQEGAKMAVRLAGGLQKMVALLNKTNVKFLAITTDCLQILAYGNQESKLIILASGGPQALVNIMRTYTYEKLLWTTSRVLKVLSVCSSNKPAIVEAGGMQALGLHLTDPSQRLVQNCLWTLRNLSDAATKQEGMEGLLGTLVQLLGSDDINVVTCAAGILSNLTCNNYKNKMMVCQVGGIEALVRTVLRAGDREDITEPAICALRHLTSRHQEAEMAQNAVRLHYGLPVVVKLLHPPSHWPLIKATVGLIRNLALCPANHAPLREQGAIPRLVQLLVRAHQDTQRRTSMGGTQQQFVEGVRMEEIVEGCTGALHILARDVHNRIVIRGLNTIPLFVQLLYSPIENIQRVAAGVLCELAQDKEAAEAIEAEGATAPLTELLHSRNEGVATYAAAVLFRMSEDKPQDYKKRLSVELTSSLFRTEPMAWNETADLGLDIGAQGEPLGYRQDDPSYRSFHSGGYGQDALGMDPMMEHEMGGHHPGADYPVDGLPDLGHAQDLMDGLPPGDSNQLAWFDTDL

Target: focal adhesion kinase (FAK) (human (endogenous in HepG2 and Huh7)) (UniProt Q05397)
Assay: affinity purification with mass spectrometry; nuclear extracts of HepG2 and Huh7 cells immunoprecipitated with an antibody against FAK on protein A/G PLUS-Agarose beads; SDS-PAGE, in-gel digestion, nLC-ESI-MS/MS

Substance: β-catenin (from UniProt P35222 1-781)
- binding: binds
